The experiment deals with ZIKV. Put plainly: ZIKV production from SNB-19 cells, focus-forming unit assay on Vero cells. Format: cell-based. The note with it: Zika virus, SNB-19, read-out: IC50, ZIKV production.

The structures appear in SMILES notation.

Take `CC[C@H](CO)Nc1nc(NCc2ccccc2)c2ncn(C(C)C)c2n1` [Seliciclib]: the IC50 amounted to 24 nM.

The record behind these values is publication PMC5386783 (Nature medicine, 2016).
